# Measured data: PubChem BioAssay AID1259254 (NCATS, 2017)
# Test: 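Gene knock-downs that lead to re-replication, shown by excess G2 DNA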 (primary screen)
# System: human HCT116 colorectal cancer cells
# Knock-down reagent: single siRNA against human genes
# Duration: 3 days
# Measurement: 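Nuclei stained with Hoechst and imaged; cell-cycle phase assigned by DNA content; G2 share scaled per plate, non-targeting siRNA 0%, GMNN siRNA 100%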
# Direction: G2 robust z-score and G2 cells, % of GMNN control: higher = more G2 cells, more excess DNA replication; raw share of cells in G2: higher = larger share of cells with G2 DNA content
# Active means: 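An siRNA counts as active if its G2 robust z-score lies at least 5 MADs above the screen median; here such calls match roughly 38% of GMNN control or more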
# Here is a random part of about 59,000 reagents. About 1,550 of them (2.6%) count as active. 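G2 share is only a proxy for re-replication; each gene was hit by three separate siRNAs, and active genes were retested.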 Raw values are not corrected between plates. Unmarked entries are inactive. The numbers tell different reagents against one gene apart. The record does not give: the amount of reagent.
gene,reagent,G2 robust z-score,"G2 cells, % of GMNN control",raw share of cells in G2 (%)
ARPC4,1,4.22,32.7,17.6
ARPC4,2,-0.0357,2.72,4.13
ARPC4,3,1.12,10.9,9.15
PPAT,1,0.495,6.45,7.2
PPAT,2,-1.3,-6.16,2.33
PPAT,3,-0.314,0.757,4.4
PNLIPRP2,1,-0.254,1.18,4.54
PNLIPRP2,2,-0.48,-0.411,4.84
PNLIPRP2,3,-0.356,0.465,4.86
IKBIP,1,0.1,3.67,5.56
IKBIP,2,-0.825,-2.84,2.48
IKBIP,3,-0.0572,2.56,2.57
CXCL11,1,0.795,8.56,8.56
CXCL11,2,-0.483,-0.428,4.4
CXCL11,3,0.519,6.62,6.15
SPOPLP2,1,-0.343,0.554,3.31
SPOPLP2,2,0.821,8.74,7
SPOPLP2,3,-0.757,-2.36,2.52
FBXO7,1,-0.894,-3.32,3.16
FBXO7,2,1.64,14.5,10.2
FBXO7,3,1.91,16.4,9.02
TMEM144,1,-0.767,-2.43,3.59
TMEM144,2,3.55,28,15.7
TMEM144,3,5.8 (active),43.7,17.1
KANSL1,1,-1.04,-4.36,1.94
KANSL1,2,0.0719,3.47,4.91
KANSL1,3,0.164,4.12,4.64
CT55,1,-0.419,0.0181,3.2
CT55,2,0.615,7.29,6.21
CT55,3,0.72,8.03,7.65

Entries listed so far marked active:
gene,reagent,G2 robust z-score,"G2 cells, % of GMNN control",raw share of cells in G2 (%)
TMEM144,3,5.8 (active),43.7,17.1
